Measured values from PubChem BioAssay AID248 (DTP/NCI, 2004).
The list shows only some results of the screen, not a fair sample: it gathers tests that were run many times, whatever their T/C, doses with no T/C, and many T/C values between a quarter and a half above the control. Further doses and runs are listed elsewhere. T/C is the treated group as % of the vehicle group. Some doses have a count of surviving animals in place of a T/C: the source files T/C as zero there, which appears to mark a toxic dose or a test without result, not a measured value. Some doses without a T/C left all or most animals alive at the check, yet need not have been tolerated: survival well below the control is almost never listed, so the zero probably covers shortened survival too. Survivors were counted at the toxicity check, usually on the fifth day, unless a day is given; later deaths do not show. Schedule codes are those of the source, taken here to give the interval after Q, in days (D) or hours (H), and the number of doses after X. For survival time, this PubChem deposit counts one and a half times the control or more as active, and values a quarter to a half above the control carry no call in these data; other NCI protocols may use other cut-offs. Some T/C values are followed by the survivors on the day toxicity was checked, most often the fifth; without a count, all were alive then.

System: L1210 leukemia ip in BDF1 mice, survival T/C
Experiment: NCI In Vivo Anticancer Drug Screen. Data for tumor model L1210 Leukemia (intraperitoneal) in B6D2F1 (BDF1) mice
Details: T/C endpoint: mean survival time, higher T/C = longer survival
[1] = dose: 100.0 mg/kg/injection, schedule: Q01DX009 (ip), vehicle: saline with Tween-80
[2] = dose: 200.0 mg/kg/injection, schedule: Q04DX003 (ip), vehicle: saline with Tween-80
[3] = dose: 100.0 mg/kg/injection, schedule: Q04DX003 (ip), vehicle: saline with Tween-80
[4] = dose: 400.0 mg/kg/injection, schedule: Q04DX003 (ip), vehicle: saline with Tween-80
[5] = dose: 50.0 mg/kg/injection, schedule: Q01DX009 (ip), vehicle: Klucel (hydroxypropylcellulose) (HPC)
[6] = dose: 100.0 mg/kg/injection, schedule: Q01DX009 (ip), vehicle: Klucel (hydroxypropylcellulose) (HPC)
[7] = dose: 400.0 mg/kg/injection, schedule: Q01DX009 (ip), vehicle: saline with Tween-80
[8] = dose: 40.0 mg/kg/injection, schedule: Q01DX001 (ip), vehicle: saline

Question: How did the survivor count [1] turn out when `NC(N)=NNC(=S)S` was run?
Answer: The survivor count was 3 of 6.

Question: And the survivor count [2]?
Answer: Its survivor count is 1 of 6.

Question: For `O=C(Nc1cccc(C(F)(F)F)c1)c1cccc(C(=O)Nc2cccc(C(F)(F)F)c2)c1`, which survivor count [3] is on record?
Answer: The survivor count was 6 of 6.

Question: What about the survivor count [2] of the same compound?
Answer: Its survivor count is 6 of 6.

Question: And the survivor count [4]?
Answer: The survivor count was 6 of 6.

Question: `Cc1ccc([N+](=O)[O-])cc1NC(=O)Nc1cccc(F)c1` was tested. Which survivor count (dose: 25.0 mg/kg/injection, schedule: Q01DX009 (ip), vehicle: Klucel (hydroxypropylcellulose) (HPC)) did it give?
Answer: Its survivor count is 6 of 6.

Question: And the survivor count [5]?
Answer: Its survivor count is 6 of 6.

Question: What about the survivor count [6] of the same compound?
Answer: Its survivor count is 6 of 6.

Question: And the survivor count (dose: 200.0 mg/kg/injection, schedule: Q01DX009 (ip), vehicle: Klucel (hydroxypropylcellulose) (HPC))?
Answer: The survivor count was 6 of 6.

Question: What does the source list for `O=S(=O)([O][Hg][CH2]C1Cc2ccccc2O1)[O][Hg][CH2]C1Cc2ccccc2O1` (configuration not stated)?
Answer: survivor count [3]: 0 of 6; survivor count [2]: 0 of 6; survivor count [4]: 0 of 6

Question: For `O=C1CC(Cl)C(=O)N1c1ccccc1` (configuration not stated), which survivor count (dose: 300.0 mg/kg/injection, schedule: Q01DX009 (ip), vehicle: saline with Tween-80) is on record?
Answer: The survivor count was 0 of 6.

Question: Which survivor count (dose: 400.0 mg/kg/injection, schedule: Q01DX001 (ip), vehicle: saline) does the source give for `CCN1CCCCCCCCCC(=N/O)/C(=N\O)C1` here?
Answer: The survivor count was 0 of 6.

Question: Which results are given for `COc1cc(C=C(C#N)C#N)cc(OC)c1OC`?
Answer: survivor count (dose: 200.0 mg/kg/injection, schedule: Q04DX002 (ip), vehicle: gum acacia): 1 of 3; survivor count (dose: 400.0 mg/kg/injection, schedule: Q04DX002 (ip), vehicle: gum acacia): 1 of 3

Question: Which results are given for `CCCCCCP(C)(=O)CCCCCC`?
Answer: survivor count (dose: 200.0 mg/kg/injection, schedule: Q01DX001 (ip), vehicle: saline with Tween-80): 3 of 6; survivor count (dose: 400.0 mg/kg/injection, schedule: Q01DX001 (ip), vehicle: saline with Tween-80): 0 of 6

Question: `COc1ccc(C(=O)NC(=O)C(C(=O)c2ccc(OC)cc2)c2ccccc2)cc1` (configuration not stated) was tested. Which survivor count (dose: 200.0 mg/kg/injection, schedule: Q01DX001 (ip), vehicle: other) did it give?
Answer: Its survivor count is 4 of 4.

Question: And the survivor count (dose: 400.0 mg/kg/injection, schedule: Q01DX001 (ip), vehicle: other)?
Answer: The survivor count was 4 of 4.

Question: How did the survivor count [4] turn out when `CCOC(=O)Cc1cnc(SC)nc1Cl` was run?
Answer: The survivor count was 1 of 6.

Question: How did the survivor count [1] turn out when `O=C(OC12CCCCC1CCCC2)c1ccc([N+](=O)[O-])cc1` (configuration not stated) was run?
Answer: Its survivor count is 6 of 6.

Question: What about the survivor count [7] of the same compound?
Answer: The survivor count was 6 of 6.

Question: With `CC(=O)Nc1ccc(S(=O)(=O)SC(F)(F)F)cc1` as the compound, how does the survivor count [8] read?
Answer: Its survivor count is 2 of 6.

Question: And the survivor count (dose: 75.0 mg/kg/injection, schedule: Q01DX001 (ip), vehicle: saline)?
Answer: Its survivor count is 1 of 6.

Question: What about the survivor count (dose: 80.0 mg/kg/injection, schedule: Q01DX001 (ip), vehicle: saline) of the same compound?
Answer: Its survivor count is 0 of 6.

Question: What about the survivor count (dose: 150.0 mg/kg/injection, schedule: Q01DX001 (ip), vehicle: saline) of the same compound?
Answer: Its survivor count is 0 of 6.

Question: What about the survivor count (dose: 300.0 mg/kg/injection, schedule: Q01DX001 (ip), vehicle: saline) of the same compound?
Answer: Its survivor count is 0 of 6.

Question: Which results are given for `O=NN(CCCl)C(=O)Nc1cc(NC(=O)N(CCCl)N=O)cc(C(=O)O)c1`?
Answer: T/C (dose: 0.79 mg/kg/injection, schedule: Q01DX009 (ip), vehicle: saline): 131 % of control; T/C (dose: 1.1 mg/kg/injection, schedule: Q01DX001 (ip), vehicle: saline): 143 % of control; T/C (dose: 1.2 mg/kg/injection, schedule: Q01DX009 (ip), vehicle: Klucel (hydroxypropylcellulose) (HPC)): 131 % of control; T/C (dose: 1.9 mg/kg/injection, schedule: Q01DX009 (ip), vehicle: Klucel (hydroxypropylcellulose) (HPC)): 142 % of control; T/C (dose: 1.9 mg/kg/injection, schedule: Q04DX003 (ip), vehicle: saline): 141 % of control; T/C (dose: 2.5 mg/kg/injection, schedule: Q01DX001 (ip), vehicle: carboxymethylcellulose (CMC)): 126 % of control; T/C (dose: 2.5 mg/kg/injection, schedule: Q01DX009 (ip), vehicle: Klucel (hydroxypropylcellulose) (HPC)): 126 % of control; T/C (dose: 2.9 mg/kg/injection, schedule: Q04DX003 (ip), vehicle: saline): 139 % of control; T/C (dose: 3.9 mg/kg/injection, schedule: Q01DX001 (ip), vehicle: saline with Tween-80): 133 % of control; T/C (dose: 4.4 mg/kg/injection, schedule: Q04DX003 (ip), vehicle: saline): 142 % of control; T/C (dose: 5.0 mg/kg/injection, schedule: Q01DX001 (ip), vehicle: carboxymethylcellulose (CMC)): 125 % of control; T/C (dose: 6.0 mg/kg/injection, schedule: Q01DX001 (ip), vehicle: saline): 147 % of control; T/C (dose: 6.6 mg/kg/injection, schedule: Q01DX009 (ip), vehicle: Klucel (hydroxypropylcellulose) (HPC)): 144 % of control; T/C (dose: 18.0 mg/kg/injection, schedule: Q01DX001 (ip), vehicle: saline): 139 % of control; survivor count (dose: 30.0 mg/kg/injection, schedule: Q04DX003 (ip), vehicle: saline): 6 of 6; T/C (dose: 39.0 mg/kg/injection, schedule: Q01DX001 (ip), vehicle: saline with Tween-80): 148 % of control; T/C [8]: 130 % of control; survivor count (dose: 40.0 mg/kg/injection, schedule: Q01DX009 (ip), vehicle: Klucel (hydroxypropylcellulose) (HPC)): 3 of 6; survivor count (dose: 60.0 mg/kg/injection, schedule: Q01DX001 (ip), vehicle: saline): 2 of 6; survivor count (dose: 60.0 mg/kg/injection, schedule: Q01DX009 (ip), vehicle: Klucel (hydroxypropylcellulose) (HPC)): 1 of 6

Question: How did the survivor count (dose: 25.0 mg/kg/injection, schedule: Q01DX001 (ip), vehicle: Klucel (hydroxypropylcellulose) (HPC)) turn out when `CC(C)/C=N/NC(N)=S` was run?
Answer: The survivor count was 1 of 6.

Question: And the survivor count (dose: 50.0 mg/kg/injection, schedule: Q01DX001 (ip), vehicle: Klucel (hydroxypropylcellulose) (HPC))?
Answer: Its survivor count is 0 of 6.

Question: What about the survivor count (dose: 100.0 mg/kg/injection, schedule: Q01DX001 (ip), vehicle: Klucel (hydroxypropylcellulose) (HPC)) of the same compound?
Answer: Its survivor count is 1 of 6.

Question: And the survivor count (dose: 200.0 mg/kg/injection, schedule: Q01DX001 (ip), vehicle: Klucel (hydroxypropylcellulose) (HPC))?
Answer: Its survivor count is 1 of 6.

Question: And the survivor count (dose: 400.0 mg/kg/injection, schedule: Q01DX001 (ip), vehicle: Klucel (hydroxypropylcellulose) (HPC))?
Answer: Its survivor count is 0 of 6.

Question: For `CC(C)CC(NS(=O)(=O)Cc1ccccc1)C(=O)NNc1ccccc1` (configuration not stated), which survivor count (dose: 400.0 mg/kg/injection, schedule: Q04DX003 (ip), vehicle: other) is on record?
Answer: The survivor count was 6 of 6.

Question: For `CC1CN=C(c2ccc(Br)cc2)O1` (configuration not stated), which survivor count [7] is on record?
Answer: Its survivor count is 2 of 6.

Question: How did the survivor count [5] turn out when `O=C(CBr)c1ccc(-c2ccccc2)cc1` was run?
Answer: Its survivor count is 3 of 6.

Question: What about the survivor count [6] of the same compound?
Answer: The survivor count was 1 of 6.

Question: What about the survivor count (dose: 150.0 mg/kg/injection, schedule: Q01DX009 (ip), vehicle: Klucel (hydroxypropylcellulose) (HPC)) of the same compound?
Answer: Its survivor count is 0 of 6.

Question: What about the survivor count (dose: 400.0 mg/kg/injection, schedule: Q04DX003 (ip), vehicle: Klucel (hydroxypropylcellulose) (HPC)) of the same compound?
Answer: Its survivor count is 1 of 6.

Question: For `CCCCCCCCCCCCN1C(C)=CS/C1=C\C=C\c1scc(C)[n+]1CCCCCCCCCCCC`, which T/C (dose: 3.12 mg/kg/injection, schedule: Q01DX009 (ip), vehicle: saline with Tween-80) is on record?
Answer: Its T/C is 125 % of control.

Question: And the survivor count (dose: 12.5 mg/kg/injection, schedule: Q01DX009 (ip), vehicle: saline with Tween-80)?
Answer: Its survivor count is 5 of 6.

Question: What about the survivor count (dose: 25.0 mg/kg/injection, schedule: Q01DX009 (ip), vehicle: saline with Tween-80) of the same compound?
Answer: The survivor count was 0 of 6.

Question: Which survivor count (dose: 400.0 mg/kg/injection, schedule: Q04DX002 (ip), vehicle: Klucel (hydroxypropylcellulose) (HPC)) does the source give for `CC(=O)OCCS(=O)(=O)c1c(Cl)c(Cl)c(Cl)c(Cl)c1Cl` here?
Answer: The survivor count was 3 of 3.

Question: For `NNc1ncnc2c1c(C(N)=O)cn2C1OC(CO)C(O)C1O` (configuration not stated), which T/C (dose: 100.0 mg/kg/injection, schedule: Q01DX005 (ip), vehicle: saline) is on record?
Answer: Its T/C is 145 % of control [4 of 6 alive].

Question: And the survivor count (dose: 200.0 mg/kg/injection, schedule: Q01DX005 (ip), vehicle: saline)?
Answer: Its survivor count is 0 of 6.

Question: Which survivor count (dose: 300.0 mg/kg/injection, schedule: Q01DX001 (ip), vehicle: other) does the source give for `Cc1c(CCO)c(=O)n2n1CCCC2` here?
Answer: Its survivor count is 0 of 6.

Question: Which survivor count (dose: 100.0 mg/kg/injection, schedule: Q04DX002 (ip), vehicle: saline with Tween-80) does the source give for `Clc1ccc(CNc2ccc(Cl)c(Cl)c2)cc1` here?
Answer: Its survivor count is 2 of 3.
